Measured values as given in PubChem BioAssay AID2685 (National Center for Advancing Translational Sciences (NCATS), 2010).
Some of the results follow. Further columns of the screen follow, without active or inactive calls. Most of these compounds were active or inconclusive in the main read-out, so they are no random draw. Potencies come from curve fits of mixed quality, noted in brackets.

Experiment: qHTS Assay for Lipid Storage Modulators in Drosophila S3 Cells;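 on cell number change: cells counted by Cell Tracker Red CMTPX staining in the red channel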
Details: BODIPY lipid droplet fluorescence, 18-24 h; for cell number change: measured here: cell count max response, cells fed with added oleic acid
Outline: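 Drosophila S3 cells got compounds at several concentrations plus oleic acid (400 uM solution). Laser-scanning cytometry with 488 nm excitation read lipid droplets at 500-530 nm and cells at 575-640 nm. Percent activity was relative to 20 uM Triacsin C.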

[1] = measured here: lipid fluorescence (Fed channel) AC50, cells fed with added oleic acid
[2] = measured here: cell number channel AC50, cells fed with added oleic acid

Row | SMILES | cell number change [%] | AC50 [1] | AC50 [2]
1 | C=CCNC(=O)c1cccc(OC2CCN(CC(C)(C)C)CC2)c1 | -6.2 | 3.66 µM [falling, full curve] | 
2 | FC(F)(F)c1cnc2c(-c3ccc(Cl)cc3Cl)noc2c1 | 17.3 | 1.46 µM [rising, partial curve] | 0.0517 µM [rising, full curve, poor fit]
3 | CCCN(C(=O)Cn1nc(C)c([N+](=O)[O-])c1C)c1c(N)n(Cc2ccccc2)c(=O)[nH]c1=O | -38.1 | 5.8 µM [falling, full curve] | 5.17 µM [falling, full curve, poor fit]
4 | COc1ccc(OC)c(-n2c(CNC3CCN(Cc4ccccc4)CC3)nc3ccccc3c2=O)c1 | 4.28 | 0.146 µM [falling, full curve, poor fit] | 
5 | COc1ccc([C@@H]2[C@H]3CN(C(C)=O)CC=C3C(C#N)=C(N)C2(C#N)C#N)c2ccccc12 | -5.2 | 6.51 µM [rising, partial curve] | 
6 | COc1cccc(CNc2ccc3[nH]c(=O)[nH]c3c2)c1OCc1ccccc1F | -38.2 | 14.6 µM [falling, single point] | 4.11 µM [falling, partial curve]
7 | COc1ccc(C(=O)N(CN2CCCC2=O)c2cc(C)on2)cc1OC | -11.2 | 0.164 µM [rising, full curve, poor fit] | 
8 | C/C(=N\NC(=O)c1cc(-c2cccs2)nc2ccccc12)c1ccccn1 |  | 0.103 µM [rising, single point] | 0.291 µM [rising, partial curve]
9 | CN(CC(=O)Nc1cccc(F)c1)C(=O)CCCNC(=O)c1ccc(Cl)cc1 | 72.5 |  | 16.4 µM [rising, single point]
10 | CS(=O)(=O)c1ncc(Cl)c(C(=O)Nc2ccc3ccccc3c2)n1 | -15.3 |  | 
11 | CCC(=O)c1cn(CC(=O)Nc2cccc(OC)c2)c2ccccc12 | 99.4 |  | 29.1 µM [rising, single point]
12 | O=C1NC(c2ccccc2Br)=N/C1=C\c1ccco1 | 18.6 | 29.1 µM [rising, single point] | 
13 | N/C(=N\OC(=O)c1ccccc1)c1ccncc1 | 25.2 |  | 
14 | O=[N+]([O-])c1ccc(-c2csc(N3CCCCCC3)n2)cc1 | 9.8 | 29.1 µM [falling, single point] | 
15 | Cc1c(C(=O)OCC(=O)N(C)Cc2ccccc2)oc2ccccc12 | -8.56 | 20.6 µM [rising, partial curve, poor fit] | 
16 | CCOc1cc(S(=O)(=O)n2ccnc2)ccc1Br | 32.4 | 16.4 µM [rising, partial curve] | 2.06 µM [rising, partial curve, poor fit]
17 | COc1ccccc1CNC(=O)CCNS(=O)(=O)c1cc(Br)cnc1N | 39.9 | 0.164 µM [rising, full curve, poor fit] | 16.4 µM [rising, single point]
18 | CCOc1cc(/C=C/c2ccc3cccc([N+](=O)[O-])c3n2)ccc1OCC(=O)N(C)C |  | 0.58 µM [rising, full curve] | 0.651 µM [rising, partial curve]
19 | COc1ccc(NC(=O)c2c(F)cccc2F)cc1S(=O)(=O)Nc1ccc(Br)cc1 | -16.7 | 4.11 µM [rising, partial curve] | 
20 | O=C(NNC(=O)c1ccc(Cl)c(S(=O)(=O)Nc2ccc(Cl)cc2)c1)c1ccc(=O)[nH]c1 | -31.3 |  | 5.8 µM [falling, full curve]
21 | COc1ccc(N2C(=O)C(C)C(Cc3ccc(C)cc3)C2=O)cc1 (centres undefined) | 10.9 | 18.4 µM [falling, single point] | 
22 | O=C(O)CCN1C(=O)NC2(CCCC2)C1=O | 19.9 | 0.0058 µM [falling, full curve, poor fit] | 
23 | CCOc1ccc(NC(=O)c2cc3c(C)nc4ccccc4c3o2)cc1 |  | 18.4 µM [rising, partial curve, poor fit] | 
24 | CC(C)C(c1nnnn1C1CCCC1)N1c2ccccc2CC1C (centres undefined) |  | 0.731 µM [rising, single point] | 0.92 µM [rising, partial curve]
25 | Cc1cc(N2CCOCC2)nc2ccc(NC(=O)CCC(=O)N3CCN(c4ccc(F)cc4)CC3)cc12 | 28.6 | 29.1 µM [rising, single point] | 
26 | COc1cc(NC(=O)C2CCN(c3cnccn3)CC2)cc(OC)c1 | -14.1 | 29.1 µM [falling, partial curve] | 
27 | CCCCN(C(=O)c1cccc(C)c1)c1c(N)n(CCC)c(=O)[nH]c1=O | 2.5 | 0.146 µM [rising, full curve, poor fit] | 

In the list so far, these contain a nitro group on carbon:
Row | SMILES | cell number change [%] | AC50 [1] | AC50 [2]
3 | CCCN(C(=O)Cn1nc(C)c([N+](=O)[O-])c1C)c1c(N)n(Cc2ccccc2)c(=O)[nH]c1=O | -38.1 | 5.8 µM [falling, full curve] | 5.17 µM [falling, full curve, poor fit]
14 | O=[N+]([O-])c1ccc(-c2csc(N3CCCCCC3)n2)cc1 | 9.8 | 29.1 µM [falling, single point] | 
18 | CCOc1cc(/C=C/c2ccc3cccc([N+](=O)[O-])c3n2)ccc1OCC(=O)N(C)C |  | 0.58 µM [rising, full curve] | 0.651 µM [rising, partial curve]

Continuation:

Row | SMILES | cell number change [%] | AC50 [1] | AC50 [2]
28 | COc1ccc(Cl)cc1NC(=O)COC(=O)c1cc(NS(=O)(=O)c2cccs2)ccc1O | 8.37 | 14.6 µM [rising, single point] | 
29 | COc1ccc(N2C(=O)C3CC(C)=C(C)CC3C2=O)c(OC)c1 (centres undefined) | 12.3 | 2.31 µM [falling, partial curve, poor fit] | 
30 | COc1ccc(N2Cc3ccccc3C2=O)cc1 | 7.33 | 0.00461 µM [rising, full curve, poor fit] | 
31 | COC(=O)CSc1nc2cc(OC)ccc2cc1C#N | 0.559 | 6.51 µM [rising, single point] | 
32 | CC(Oc1ccc(Cl)cc1Cl)c1nc(-c2ccccn2)no1 (centres undefined) | -7.9 | 1.16 µM [rising, single point] | 
33 | COc1ccc(/C=N/NC(=O)c2cccc([N+](=O)[O-])c2)cc1OS(=O)(=O)c1ccc(C)cc1 | -31.2 | 13 µM [falling, partial curve] | 23.1 µM [falling, single point]
34 | CNC(=S)N/N=C/c1ccc(OCc2ccccc2)c(Br)c1 | -41.1 | 8.2 µM [falling, partial curve] | 29.1 µM [falling, single point]
35 | COC(=O)c1c(O)ccc(Oc2ccccc2)c1C(=O)OC | -34.1 | 0.411 µM [falling, single point] | 0.461 µM [falling, full curve, poor fit]
36 | COc1ccc(OC)c(S(=O)(=O)N2CCN(c3ncccn3)CC2)c1 | -16.3 | 29.1 µM [falling, single point] | 
37 | Cn1c(=O)c2c(n3cnnc13)-c1ccccc1CC21CCCC1 | -24.3 | 29.1 µM [falling, single point] | 
38 | Cc1cccc(NCc2cccc3ccccc23)n1 | -21.7 | 0.651 µM [rising, single point] | 
39 | CCCCSc1nc2c(cnn2-c2ccc(Cl)cc2)c(=O)[nH]1 |  | 0.651 µM [rising, full curve, poor fit] | 
40 | COc1ccc(-c2cc(=O)c3c(O)cc(O[C@@H]4O[C@H](CO[C@@H]5O[C@@H](C)[C@H](O)[C@@H](O)[C@H]5O)[C@@H](O)[C@H](O)[C@H]4O)cc3o2)cc1O | -4.09 | 29.1 µM [rising, single point] | 
41 | COc1cc(/C=C/C(=O)C2C(=O)C=C(C)OC2=O)cc(OC)c1O (centres undefined) | -20.9 | 11.6 µM [falling, partial curve, poor fit] | 
42 | COc1ccc2c(c1)-c1c(ssc1=S)C(C)(C)N2 | -66 | 29.1 µM [falling, single point] | 29.1 µM [falling, single point]
43 | Cc1cccc(N(CC(=O)Nc2c(C)n(C)n(-c3ccccc3)c2=O)S(C)(=O)=O)c1 | -111 |  | 29.1 µM [falling, single point]
44 | C=CCNC(=O)N1CCc2[nH]c3ccc(F)cc3c2C1 | 13 |  | 
45 | COc1ccc(Cc2nnc(SCc3ccc([N+](=O)[O-])cc3)o2)cc1 | 15.1 |  | 0.00461 µM [falling, full curve, poor fit]
46 | Cc1ccc(-c2nn3c(C)nnc3s2)cc1NC(=O)C(C)C | 34.1 | 23.1 µM [rising, single point] | 23.1 µM [rising, single point]
47 | NC(=O)CC(NC(=O)c1ccccc1)c1ccc(N2CCN(c3ccc(F)cc3)CC2)c([N+](=O)[O-])c1 (centres undefined) | -43.4 |  | 32.6 µM [falling, single point]
48 | CCN1C(=O)/C(=C\c2ccncc2)SC1=Nc1ccc(C)c(C)c1 | 7.83 | 2.06 µM [falling, partial curve] | 
49 | Cc1ccc(CNC(=O)CCc2nc3ccccc3c(=O)[nH]2)cc1 | 20.7 | 8.2 µM [rising, single point] | 
50 | COc1ccc(-c2noc(-c3cc(C)cc(C)c3)n2)cc1OC | -16.7 | 9.2 µM [rising, partial curve, poor fit] | 4.11 µM [rising, single point]
51 | COc1cc(OC)cc(C(=O)NCc2nc(-c3ccccc3)no2)c1 | -45.5 |  | 32.6 µM [falling, partial curve, poor fit]
52 | CCOC(=O)C(Cc1ccccc1)NC(C)=O (centres undefined) | -55.6 | 2.59 µM [falling, full curve] | 5.8 µM [falling, full curve]
53 | COc1ccc(-c2nnc(SCC(=O)NC3CCCCC3)o2)cc1OC | -46.5 |  | 16.4 µM [falling, partial curve, poor fit]
54 | Cc1ccc2sc(N(CCCN(C)C)C(=O)c3ccc(Br)s3)nc2c1C |  | 2.06 µM [falling, partial curve] | 
